# Reference: the supplement of paper PMC10735217
# Structures can show the parent of a compound that is named as a salt. Some of the results follow. Repeats in this data set agree poorly, so a single value says little.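 The human kidney-derived cells carry a stably integrated construct of eight TEAD-binding elements driving luciferase, read by luminescence in a drug-repurposing library screen. A compound counts as a hit when its signal is more than five robust Z scores above the plate mean.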
# Tested on: HEK293A TEAD-LUC reporter
# Experiment: TEAD-luciferase reporter activity (YAP activation), robust Z score vs plate; higher = stronger YAP/TEAD activation
# Settings: 24 h
SMILES,TEAD-luciferase reporter activity (compound concentration: 200 nM),TEAD-luciferase reporter activity (compound concentration: 2 uM),TEAD-luciferase reporter activity (compound concentration: 10 uM)
CCN(CC)CCOc1ccc2c(c1)C(=O)c1cc(OCCN(CC)CC)ccc1-2 [tilorone],inactive: -0.784,inactive: 0.317,inactive: -1.58
O=C(O)CCC(=O)c1ccc(-c2ccccc2)cc1 [Fenbufen],,inactive: 0.203,
O=C(O)CCC(=O)c1ccc(-c2ccccc2)cc1,inactive: -0.777,,inactive: 0.319
COc1ccc(OC)c(C2CCN(Cc3ccc4c(c3)OCCO4)C2)c1 (stereo not drawn),inactive: -0.335,inactive: -0.574,inactive: -1.3
CCCNCCOc1ccc(NC(=O)c2c[nH]c3c2C(=O)CCC3)cc1F,inactive: -1.97,inactive: -0.808,inactive: 2.16
CCCCC[C@H](O)/C=C/[C@H]1CCC(=O)[C@@H]1CCCCCCC(=O)NC(C(=O)O)C(C)C (stereo partly drawn),inactive: -1.3,inactive: 0.669,inactive: -0.434
COc1ccc(CN(CCC(=O)O)S(=O)(=O)c2ccc(C)cc2)cc1,inactive: -0.138,inactive: 0.626,inactive: 0.362
Cn1c(NCCN(CCO)CCCc2ccc([N+](=O)[O-])cc2)cc(=O)n(C)c1=O [nifekalant hydrochloride],,inactive: -0.9,
Cn1c(NCCN(CCO)CCCc2ccc([N+](=O)[O-])cc2)cc(=O)n(C)c1=O [Nifekalant hydrochloriden/a],inactive: -1.56,,inactive: -0.0278
COc1ccc(-c2nc(=O)n(CC=C(C)C)nc2-c2ccc(OC)cc2)cc1,inactive: 0.357,inactive: -0.454,inactive: 0.649
CC#C[C@]1(O)CCC2C3CCC4=CC(=O)CCC4=C3[C@@H](c3ccc4c(c3)OCO4)C[C@@]21C (stereo partly drawn),inactive: -1.46,inactive: -0.0666,inactive: 0.353
O=C1C[C@@H]2CS(=O)c3ccccc3C2=NN1c1ccc(Cl)cc1 (stereo partly drawn),inactive: -0.788,inactive: -0.967,inactive: 1.9
[N-]=[N+]=N[C@]1(CO)O[C@@H](n2ccc(N)nc2=O)[C@H](O)[C@@H]1O,inactive: -0.314,inactive: 1.43,inactive: 1.1
CC(C)(S)C(N)C(=O)O (racemic),inactive: 0.704,,inactive: 0.155
Clc1cccc(Cl)c1N(C1=NCCN1)C1CCCCO1 (stereo not drawn),inactive: -1.92,inactive: 1.74,inactive: 1.03
NCCNC(=O)c1ccc(Cl)cn1 [Lazabemide],inactive: -0.5,inactive: -0.03,inactive: -1.03
Cn1c(=O)c2c(nc(N3CCOCC3)n2C)n(C)c1=O,inactive: 0.421,inactive: 0.491,active: 12
CC(C)(O)c1ccc(-c2nc(-c3ccc(F)cc3)oc2Sc2ccc(Cl)cn2)cn1,inactive: -1.19,inactive: -0.626,inactive: 1.08
CC(C)[N+](C)(CCOC(=O)C1c2ccccc2Oc2ccccc21)C(C)C [Propantheline bromide],,inactive: -1.23,
CC(C)[N+](C)(CCOC(=O)C1c2ccccc2Oc2ccccc21)C(C)C [Pro-Banthine50-34-0],inactive: 4.75,,inactive: 1.08

SMILES,TEAD-luciferase reporter activity (compound concentration: 200 nM),TEAD-luciferase reporter activity (compound concentration: 2 uM),TEAD-luciferase reporter activity (compound concentration: 10 uM)
CCOC(=O)c1ccc(C#Cc2ccc3c(c2)C(C)(C)CCS3)nc1 [tazarotene],inactive: -1,inactive: -0.529,inactive: 1.15
C[C@@H]1CC[C@@]2(OC1)O[C@H]1C[C@H]3[C@@H]4CC[C@H]5C[C@H](O)CC[C@]5(C)[C@H]4CC[C@]3(C)[C@H]1[C@@H]2C [smilagenin],inactive: 0.176,inactive: -1.19,inactive: -0.362
CCCc1nc(CC)c(C(=O)O)n1Cc1ccc(-c2ccccc2-c2nn[nH]n2)cc1,inactive: -1.64,inactive: -1.18,inactive: 1.48
[Br][Ag] [Silver Bromide],inactive: -0.481,inactive: -0.468,inactive: 1.51
C[C@]12C=CC(=O)C=C1CC[C@@H]1[C@@H]2C(=O)C[C@@]2(C)[C@H]1CC[C@]2(O)C(=O)CO [Prednisone53-03-2],inactive: -1.88,,inactive: -1.63
"C[C@]12C=CC(=O)C=C1CC[C@@H]1[C@@H]2C(=O)C[C@@]2(C)[C@H]1CC[C@]2(O)C(=O)CO [prednisolone, Takeda]",,inactive: -0.267,
CN1CCN2c3ccccc3Cc3ccccc3C2C1 (stereo not drawn),inactive: 2.08,,inactive: -0.405
CN1CCN2c3ccccc3Cc3ccccc3C2C1 (stereo not drawn) [mianserin],,inactive: 1.29,
N[C@H](CCC(=O)N[C@H](Cc1c[nH]c2ccccc12)C(=O)O)C(=O)O [orilotimod],inactive: -0.578,inactive: 0.53,inactive: 1.07
Cc1ccc(F)cc1[C@@H]1C/C(=N\NC(=N)N)c2c(C)ccnc2C1,inactive: -1.2,inactive: -0.737,inactive: -0.777
CCCCC[C@H](O)/C=C/[C@H]1C(=O)C=C[C@@H]1C/C=C\CCCC(=O)O,inactive: -0.451,inactive: 0.883,inactive: 0.78
NS(=O)(=O)c1nn2cc(-c3ccccc3)nc2s1,inactive: 0.184,inactive: -1.12,inactive: 2.72
CCOC(=O)c1ccc([C@H]2CC[C@H](NC[C@H](O)COc3ccc(O)c(NS(C)(=O)=O)c3)CC2)cc1,inactive: -1.72,inactive: -0.895,inactive: 0.173
NC(=O)c1ncn(C2OC(CO)C(O)C2O)n1 (stereo not drawn) [ribavirin],,inactive: -0.791,
NC(=O)c1ncn(C2OC(CO)C(O)C2O)n1 (stereo not drawn),inactive: -2.3,,inactive: 1.06
CC(C)=CCC/C(C)=C/CC/C(C)=C/C=C/C(C)=C/C(=O)O [peretinoin],inactive: 1.67,inactive: -1.77,inactive: -0.446
COc1ccc(N(Cc2cccnc2)c2cccc(C(=O)NC3CCCC3)c2)cc1OC1CCCC1,inactive: -0.459,inactive: -0.482,inactive: 0.219
CC1COC2=C1C(=O)C(=O)c1c2ccc2c1CCCC2(C)C (stereo not drawn) [Cryptotanshi],inactive: -0.888,inactive: -1.12,active: 7.9
CCCC(CCC)C(=O)Nc1ccn([C@@H]2O[C@H](CO)[C@@H](O)C2(F)F)c(=O)n1,inactive: -2.45,inactive: -0.765,inactive: -0.975
CCO[C@H](COc1ccc(C(F)(F)F)cc1)CSc1ccc(OCC(=O)O)c(C)c1,inactive: 1.44,inactive: -1.6,inactive: -0.502

# Quoted at random: 3 records from the list, in no set order.
SMILES,TEAD-luciferase reporter activity (compound concentration: 200 nM),TEAD-luciferase reporter activity (compound concentration: 2 uM),TEAD-luciferase reporter activity (compound concentration: 10 uM)
N[C@H](CCC(=O)N[C@H](Cc1c[nH]c2ccccc12)C(=O)O)C(=O)O [orilotimod],inactive: -0.578,inactive: 0.53,inactive: 1.07
CCCCC[C@H](O)/C=C/[C@H]1CCC(=O)[C@@H]1CCCCCCC(=O)NC(C(=O)O)C(C)C (stereo partly drawn),inactive: -1.3,inactive: 0.669,inactive: -0.434
CN1CCN2c3ccccc3Cc3ccccc3C2C1 (stereo not drawn),inactive: 2.08,,inactive: -0.405

# More entries.

SMILES,TEAD-luciferase reporter activity (compound concentration: 200 nM),TEAD-luciferase reporter activity (compound concentration: 2 uM),TEAD-luciferase reporter activity (compound concentration: 10 uM)
"C[C@]12CC[C@@H]3c4ccc(O)cc4CC[C@H]3[C@@H]1C[C@@H](O)[C@@H]2O [estriol, Jenapharm]",inactive: -0.92,inactive: -2,inactive: 2.69
CCCCCCCCCCCCCCCCOc1nc2ccc(C)cc2c(=O)o1 [Cetilistat],inactive: 0.252,,inactive: -0.233
CSCC[C@H](NC(=O)C(CS)Cc1ccccc1C)C(=O)O (stereo partly drawn),inactive: -1.49,inactive: 0.738,inactive: 0.52
CN(C(=O)C(Cl)Cl)c1ccc(O)cc1,inactive: 4.72,inactive: -0.577,inactive: -0.338
COc1ccc(Cc2cccc(-c3c(OC(C)=O)c4ccc(Cl)cc4[nH]c3=O)c2)cc1,inactive: -0.0756,inactive: 2.36,inactive: 3.26
CC(C)CCC[C@@H](C)[C@H]1CC(=O)C2=C3CC[C@H]4C[C@@H](O)CC[C@]4(C)C3CC[C@@]21C (stereo partly drawn) [colestolone],inactive: -0.672,inactive: 0.382,active: 8.4
Nc1ncccc1-c1cc(Cc2ccc(COc3ccccn3)cc2)no1,inactive: -0.948,inactive: -0.377,inactive: -0.782
CO[C@@]1(NC(=O)C2SC(=C(C(N)=O)C(=O)O)S2)C(=O)N2C(C(=O)O)=C(CSc3nnnn3C)CS[C@@H]21 (stereo partly drawn) [cefotetan],inactive: -0.652,inactive: -0.0441,inactive: 1.59
O=C1c2ccccc2C(=O)C1c1ccc(F)cc1,inactive: -1.45,inactive: 1.26,inactive: -0.771
O=C(O)c1cccc(-c2noc(-c3ccccc3F)n2)c1 [ataluren],inactive: 0.443,inactive: -2.76,inactive: -3.16
C[C@@H](O)[C@H]1C(=O)N2C(C(=O)[O-])=C(S[C@@H]3CN[C@H](C(=O)Nc4cccc(C(=O)[O-])c4)C3)[C@H](C)[C@H]12 [Ertapenem],inactive: 0.665,,inactive: 0.268
C[C@@H](O)[C@H]1C(=O)N2C(C(=O)[O-])=C(S[C@@H]3CN[C@H](C(=O)Nc4cccc(C(=O)[O-])c4)C3)[C@H](C)[C@H]12 [Ertapenem disodium],,inactive: 1.44,
Cc1ccsc1-c1ccc(CCC(=O)O)cc1,inactive: -0.239,inactive: -0.561,inactive: 3.72
Clc1ccc2c(c1)C(N1CCNCC1)=Nc1ccccc1O2,inactive: -0.251,,inactive: 1.63
Clc1ccc2c(c1)C(N1CCNCC1)=Nc1ccccc1O2 [amoxapine],,inactive: -1.1,
CC(=O)NCCCNC(=O)Nc1c(C)cccc1C,active: 5.81,inactive: -1.49,inactive: -0.000612
Cc1cccc(Oc2cnc(=O)[nH]c2)c1 [Tolimidone],inactive: 0.101,inactive: -1.71,inactive: -0.074
Cn1c(=O)c2c(ncn2CCCN2CCC(OC(c3ccccc3)c3ccccc3)CC2)n(C)c1=O,inactive: -0.942,inactive: -1.93,inactive: 3.34
